According to ChEMBL document CHEMBL5053556, “Design, Synthesis, and Biological Evaluation of a Novel Series of Teriflunomide Derivatives as Potent Human Dihydroorotate Dehydrogenase Inhibitors for Malignancy Treatment” (J Med Chem, 2021):
≈ marks a conversion by molar mass, not a printed value.

How the values were obtained:
Raji = assay: Antiproliferative activity against human Raji cells assessed as cell growth inhibition at 0.06 uM incubated for 96 hrs by MTT assay; format: functional; parameters: scale not given: the % may be the effect or the level left
physchem = details: buffer

Compound: C/C(O)=C(\C#N)C(=O)Nc1cc(O[C@@H](C)C(F)(F)F)c(C(=O)Nc2c(F)cccc2F)cc1F
- Activity (Raji): 20.1%
- solubility (physchem): 20.1 mg/mL (≈ 41.2 mM)
